Key:
[1] = 20° gloss retention of two-component acrylic urethane clearcoat, Xenon-Arc Weather-Ometer
Experimental: The hindered amine test stabilizers are incorporated into a two-component acrylic urethane coating as described in Example 99. The system is catalyzed with 0.02% by weight of dibutyltin dilaurate based on the total resin solids. The stabilizers are added at the appropriate level to the acrylic polyol portion of the two-component coating which is then combined with the isocyanate component immediately prior to application.
Steel panels 3″×4″ primed with an electrocoat primer are then coated with a light blue metallic basecoat, then with the stabilized clearco at. The basecoat is spray applied to a thickness of 1.0 mil (25 microns) dry film thickness and the stabilized clearcoat is then applied to a thickness of 2.0 mils (50 microns) dry film thickness. The coating is air-dried and aged for two weeks. The panels are then exposed in a Xenon-Arc Weather-Ometer under the following conditions:
(§1) Cam 180 cycle: 40 minutes light only; 20 minutes light and front spray; 60 minutes light only; 60 minutes dark and rear spray condensate.
Lamp filters are: quartz inner/borosilicate S outer.
Irradiance: 0.45 watts per square meter.
20° Gloss is measured before exposure and at 500 hour intervals during exposure. Higher gloss retention is desirable.

[2] = Film loss of acrylic urethane clearcoat on silicon disks, Xenon-Arc Weather-Ometer
Experimental: A clearcoat as prepared in Example 108 is applied by spin-coating to 1″ silicon disks to a dry film thickness of approximately 25 microns. The initial optical film thickness of each disk is measured using a Zeiss interferometer. The disks are then exposed in a Xenon-Arc Weather-Ometer under the following conditions:
as §1
Lamp filters are: quartz inner/quartz outer.
Irradiance: 0.55 watts per square meter.
Optical film thickness is remeasured every 250 hours and film loss is determined for each formulation. A lower value for film loss is desirable.

[3] = Light stability of yellow chromogenic photographic layers (Atlas WeatherOmeter)
Experimental: Chromogenic photographic layers are prepared by hand-coating a gelatine emulsion containing silver bromide, yellow coupler and an additive on a polyethylene-coated paper.
The layers are dried for 7 days in a ventilated cabinet.
The dried samples are exposed to white light through a stepwedge of 0.3 logE exposure steps. They are developed with the P94 process for negative colour paper from Agfa-Gevaert, following the manufacturers' recommendations.
After exposure and processing, the remission density of the yellow dye is measured in the blue channel. The samples are then exposed in an Atlas WeatherOmeter behind a separate UV filter so as to receive 60 kJ/cm^2 light energy. The UV filter consists of an emulsion coated onto a polyester transparent support, such that the layer contains 1 g/m^2 Tinuvin B976®. The temperature is 43° C. and the relative humidity 50%. The density loss starting from a blue-density of 1 is determined. Low ΔD number are desired.

[4] = Flame retardancy of polypropylene fiber socks, NFPA701-1996 vertical burn; conditions: additive 1.0% in polypropylene fiber sock
Experimental: Fiber grade polypropylene, is dry blended with the test additives and then melt is compounded at 234° C. (450° F.) into pellets. All formulations additionally contain melt processing stabilizer system. The pelletized fully formulated resin is then spun at 246° C. (475° F.) into fiber using a Hills laboratory model fiber extruder. The spun tow of 41 filaments is stretch at a ratio of 1:3.2 to give a final denier of 615/41.
The fibers are then knitted into socks and on a Lawson-Hemphill Analysis Knitter. Ten replicates of each sample are tested under NFPA701-1996 Vertical burn procedure. The time in seconds for the knitted sock to extinguish after the insult flame is removed is reported as “After Flame”. […] The burning time of the drips from the material and the weight loss are also recorded.

## CCCCN(c1nc(NCCO)nc(N(CCCC)C2CC(C)(C)N(OC3CCCCC3)C(C)(C)C2)n1)C1CC(C)(C)N(OC2CCCCC2)C(C)(C)C1 [D, 2,4-bis[N-(1-cyclohexyloxy-2,2,6,6-tetramethylpiperidin-4-yl)-N-butylamino]-6-(2-hydroxyethylamino)-s-triazine, reference compound]
[1]; 4500 hours
  Percent Retention of 20° Gloss: 34%
[1]; 8500 hours
  Percent Retention of 20° Gloss: 22%
[2]; 3972 hours
  Film Loss: 6.3 microns
[2]; 5561 hours
  Film Loss: 14.3 microns

## CC(C)(O)CON1C(C)(C)CC(CCCCNc2nc(NCCO)nc(NCCCCC3CC(C)(C)N(OCC(C)(C)O)C(C)(C)C3)n2)CC1(C)C [Example 12, 2,4-Bis {N-[1-(2-hydroxy-2-methylpropoxy)-2,2,6,6-tetramethylpiperidin-4-yl]butylamino}-6-(2-hydroxyethyl)amino-s-triazine]
[1]; 4500 hours
  Percent Retention of 20° Gloss: 41%
[1]; 8500 hours
  Percent Retention of 20° Gloss: 23%
[2]; 3972 hours
  Film Loss: 5.9 microns
[2]; 5561 hours
  Film Loss: 12.4 microns

## CCCCCCCCCCCCCCCCCC(=O)OC1CC(C)(C)N(OCC(C)(C)O)C(C)(C)C1 [Example 73, 1-(2-Hydroxy-2-methylpropoxy)-4-octadecanoyloxy-2,2,6,6-tetramethylpiperidine]
[3]; Coupler CoupY1
  -DD(60 kJ/cm^2, from OD = 1): 59
[3]; Coupler CoupY3
  -DD(60 kJ/cm^2, from OD = 1): 22
[4]
  After flame: 0.5 s
  Drip Burn: 12.5 s
  Weight loss: 36%

From patent publication US6376584B1, “Hydroxy-substituted N-alkoxy hindered amines and compositions stabilized therewith” (Ciba Specialty Chemicals Corporation, priority 1999, dated 2002)
